Data published in patent publication US4210749A, “Substituted 1,2,4,5-tetrahydro-3H,3 benzazepines” (priority 1979, dated 1980).

Columns and labels:
[1] = in vivo; conditions: po
[2] = in vivo

SMILES: CN1CC[C@]23c4c5ccc(O)c4O[C@H]2[C@@H](O)C=C[C@H]3[C@H]1C5 [Morphine, reference compound]
- NOAEL [1]: 56 mg/kg
- LD50 ([2]; ip): 250 mg/kg
- LD50 ([2]; po): ~800 mg/kg
